These are yes or no findings as the source states them, for the method shown. A result given as binding can be weak or reduced; the word gives no strength.
Target: T1, Slc19A1 (mouse) (UniProt P41438)
T1 sequence: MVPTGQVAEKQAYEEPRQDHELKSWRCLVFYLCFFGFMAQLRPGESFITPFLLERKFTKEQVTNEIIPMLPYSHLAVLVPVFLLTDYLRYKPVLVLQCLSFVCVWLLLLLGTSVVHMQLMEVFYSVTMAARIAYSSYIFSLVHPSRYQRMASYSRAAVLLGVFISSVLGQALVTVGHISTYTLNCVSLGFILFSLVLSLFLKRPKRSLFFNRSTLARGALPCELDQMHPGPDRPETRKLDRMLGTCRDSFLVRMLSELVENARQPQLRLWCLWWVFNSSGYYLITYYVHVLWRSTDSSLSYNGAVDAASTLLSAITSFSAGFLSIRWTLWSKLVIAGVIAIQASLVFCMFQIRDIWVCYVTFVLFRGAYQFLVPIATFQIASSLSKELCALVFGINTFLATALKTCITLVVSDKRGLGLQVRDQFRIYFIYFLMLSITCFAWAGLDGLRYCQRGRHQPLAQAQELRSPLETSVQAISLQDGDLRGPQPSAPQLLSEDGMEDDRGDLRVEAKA
Test: Cell-Int (cell-cell conjugates counted by flow cytometry)

Question: With GLN Env as the substance, how does the binding read?
Answer: The binding was “binds”.

From paper PMC11377309
